Measurements reported in PubChem BioAssay AID624150 (Cancer Research UK Cambridge, 2012).
Shown is an unselected part of 331 reagents. 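Each arm had three replicate z-scores, but only the first replicate is printed; higher values mean more differentiation marker per cell.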 Reagent sequences are not shown.

- Assay: 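Which chromatin factors steer differentiation of epidermal stem cells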 (primary screen)
- System: primary human epidermal keratinocytes
- Knock-down reagent: siRNA pool against human genes, 1-2 µM siRNA in 20 µl nucleofection
- Time to read-out: 72 h after transfection plus 48 h differentiation (about 5 days)
- Challenge: five arms for 48 h: vehicle, AG1478 10 µM, BMP2/7 200 ng/ml, both together, or 10% serum
- Measurement: 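Transglutaminase 1 immunostaining divided by DNA staining in each well, background removed, then z-scored versus every test siRNA on that plate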
- Direction: z-score, vehicle and z-score, AG1478 10 µM and z-score, BMP2/7 200 ng/ml and z-score, AG1478 with BMP2/7 and z-score, 10% serum: higher = more differentiation marker per cell

| gene symbol | z-score, vehicle | z-score, AG1478 10 µM | z-score, BMP2/7 200 ng/ml | z-score, AG1478 with BMP2/7 | z-score, 10% serum |
| --- | --- | --- | --- | --- | --- |
| JADE3 (GeneID 9767) | -0.429 | 0.633 | -0.848 | 0.292 | -0.388 |
| HDAC3 (GeneID 8841) | 0.704 | 0.493 | 1.37 | -0.451 | -0.601 |
| DOT1L (GeneID 84444) | 1.33 | 1.41 | 2.06 | 1.71 | 0.385 |
| SP140 (GeneID 11262) | -0.233 | 0.195 | -0.218 | 0.608 | -0.218 |
| ELP3 (GeneID 55140) | 0.788 | 0.61 | 0.848 | 0.856 | 0.904 |
| PRDM1 (GeneID 639) | 0.269 | -0.755 | -0.405 | -1.31 | -0.42 |
| HR (GeneID 55806) | 0.669 | -0.408 | 0.45 | 0.0917 | 0.0624 |
| ARID4B (GeneID 51742) | -1.52 | -1.17 | -0.657 | -1.04 | -1.57 |
| KMT2A (GeneID 4297) | -0.651 | -0.386 | -0.678 | -0.949 | -0.615 |
| PRDM15 (GeneID 63977) | -0.489 | -0.306 | -0.511 | -0.647 | -0.584 |
| PHIP (GeneID 55023) | -1.1 | -0.835 | -1.43 | -0.836 | 0.0498 |
| MBD5 (GeneID 55777) | -0.288 | -1.4 | 0.408 | 0.42 | 0.805 |
| AIRE (GeneID 326) | 0.684 | -1.27 | -2.51 | -2.33 | -2.99 |
| RBBP7 (GeneID 5931) | 0.216 | -0.412 | -0.305 | -0.781 | 0.0775 |
| ATF7IP2 (GeneID 80063) | 0.412 | 0.943 | 1.16 | 0.55 | 0.746 |
| PRDM8 (GeneID 56978) | -0.719 | -0.971 | -0.074 | -0.244 | -1.46 |
| KDM5D (GeneID 8284) | -0.619 | 0.142 | -0.243 | -0.309 | 0.0567 |
| MBD2 (GeneID 8932) | -0.786 | -1.04 | -0.121 | -0.623 | -0.228 |
| NFX1 (GeneID 4799) | -0.472 | -0.184 | 0.322 | -0.117 | 0.926 |
| SMYD1 (GeneID 150572) | -0.463 | 0.194 | -0.568 | 0.422 | 0.703 |
| TDRKH (GeneID 11022) | -0.735 | -0.477 | -1.58 | -0.334 | -0.291 |
| EZH2 (GeneID 2146) | 1.85 | 0.997 | 0.684 | 0.818 | 0.511 |
| NCOA1 (GeneID 8648) | -1.23 | -0.572 | -0.271 | 0.218 | -0.351 |
| INO80 (GeneID 54617) | -1.27 | -1.19 | -1.01 | -1.74 | -2.85 |
| HAT1 (GeneID 8520) | -0.025 | -0.671 | -0.857 | 0.0843 | 0.151 |
| CHD2 (GeneID 1106) | 0.244 | -0.117 | -0.474 | -0.546 | 0.459 |
| MECP2 (GeneID 4204) | 0.662 | -0.608 | -1.04 | -0.431 | 0.238 |
| RAI1 (GeneID 10743) | -0.655 | -0.732 | -0.608 | -0.0593 | -0.229 |
| TRIM66 (GeneID 9866) | 0.017 | 0.469 | 0.698 | 1.09 | 0.171 |
| PYGO1 (GeneID 26108) | 0.466 | -0.0568 | 0.353 | -0.162 | 0.574 |
| TRIM33 (GeneID 51592) | -0.686 | -0.483 | -0.751 | -0.621 | -0.627 |
| DNMT1 (GeneID 1786) | -0.312 | 0.204 | 0.302 | 0.677 | 0.0447 |
| PLA2G4B (GeneID 100137049) | -0.653 | 3.19 | 2.13 | 2 | 1.48 |
| SMARCAL1 (GeneID 50485) | 0.527 | 0.122 | 0.26 | 0.00516 | 0.18 |
| BPTF (GeneID 2186) | 2.53 | 1.26 | 2.25 | 1.17 | 1.31 |
| BRPF3 (GeneID 27154) | 2.14 | 1.34 | 3.22 | 0.596 | 0.914 |
| TRIM28 (GeneID 10155) | -0.555 | -0.721 | 0.0543 | -1.23 | -0.0897 |
| KDM8 (GeneID 79831) | -0.121 | -0.149 | 0.111 | -0.0998 | 0.245 |
| SETD7 (GeneID 80854) | 0.0378 | 1.1 | -0.0999 | 1.39 | 0.839 |
| RAD54L (GeneID 8438) | -0.318 | -0.493 | -0.578 | -0.488 | 0.156 |
| SCMH1 (GeneID 22955) | -1.12 | 0.127 | -0.112 | -0.51 | 0.484 |
| KMT2C (GeneID 58508) | -0.615 | -1.62 | -0.608 | -1.72 | -0.378 |
| MLLT6 (GeneID 4302) | 1.15 | -1.02 | 1.04 | 0.362 | 0.818 |
| PRDM16 (GeneID 63976) | -0.534 | 0.159 | -0.532 | 1.08 | 0.0778 |
| CARM1 (GeneID 10498) | -1.51 | -2.01 | -1.36 | -2.65 | -3.46 |
| BAZ1A (GeneID 11177) | 0.761 | 1.02 | -0.0712 | 0.4 | -0.578 |
| PRDM2 (GeneID 7799) | -0.703 | -0.502 | -0.712 | -0.874 | -0.428 |
| FBXL19 (GeneID 54620) | 1.15 | 1.68 | 0.761 | 1.18 | 0.668 |
| BRDT (GeneID 676) | -1.86 | -2.34 | -1.95 | -3.6 | -2.6 |
| SETMAR (GeneID 6419) | -1.03 | -0.552 | -0.751 | -0.506 | -1.31 |

Part of the list above, reduced to “z-score, vehicle”:
HR (GeneID 55806)	0.669
ARID4B (GeneID 51742)	-1.52
KMT2A (GeneID 4297)	-0.651
PRDM15 (GeneID 63977)	-0.489
PHIP (GeneID 55023)	-1.1
MBD5 (GeneID 55777)	-0.288
AIRE (GeneID 326)	0.684
RBBP7 (GeneID 5931)	0.216
